Where two headings read alike, the source gives them in different places. Results are given in words; binding and its absence hold for the method and conditions named. In cells and extracts the contact can be indirect. These calls come from enrichment with a bait or labelling near it, and not all partners need be listed.

Sequences of proteins named here, by UniProt entry; tags and fusion partners are left off.
UniProt Q91YI4: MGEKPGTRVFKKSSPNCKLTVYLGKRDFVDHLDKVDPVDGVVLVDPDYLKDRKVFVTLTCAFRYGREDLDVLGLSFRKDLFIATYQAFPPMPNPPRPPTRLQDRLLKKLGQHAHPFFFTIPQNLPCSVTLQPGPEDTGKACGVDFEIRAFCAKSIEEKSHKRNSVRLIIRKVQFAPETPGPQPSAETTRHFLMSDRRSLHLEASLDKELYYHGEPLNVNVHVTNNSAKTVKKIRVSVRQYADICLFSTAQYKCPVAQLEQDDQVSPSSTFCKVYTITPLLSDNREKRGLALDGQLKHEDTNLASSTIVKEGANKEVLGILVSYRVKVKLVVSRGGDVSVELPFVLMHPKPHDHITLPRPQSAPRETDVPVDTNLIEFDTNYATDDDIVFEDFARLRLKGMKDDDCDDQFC
UniProt P20357: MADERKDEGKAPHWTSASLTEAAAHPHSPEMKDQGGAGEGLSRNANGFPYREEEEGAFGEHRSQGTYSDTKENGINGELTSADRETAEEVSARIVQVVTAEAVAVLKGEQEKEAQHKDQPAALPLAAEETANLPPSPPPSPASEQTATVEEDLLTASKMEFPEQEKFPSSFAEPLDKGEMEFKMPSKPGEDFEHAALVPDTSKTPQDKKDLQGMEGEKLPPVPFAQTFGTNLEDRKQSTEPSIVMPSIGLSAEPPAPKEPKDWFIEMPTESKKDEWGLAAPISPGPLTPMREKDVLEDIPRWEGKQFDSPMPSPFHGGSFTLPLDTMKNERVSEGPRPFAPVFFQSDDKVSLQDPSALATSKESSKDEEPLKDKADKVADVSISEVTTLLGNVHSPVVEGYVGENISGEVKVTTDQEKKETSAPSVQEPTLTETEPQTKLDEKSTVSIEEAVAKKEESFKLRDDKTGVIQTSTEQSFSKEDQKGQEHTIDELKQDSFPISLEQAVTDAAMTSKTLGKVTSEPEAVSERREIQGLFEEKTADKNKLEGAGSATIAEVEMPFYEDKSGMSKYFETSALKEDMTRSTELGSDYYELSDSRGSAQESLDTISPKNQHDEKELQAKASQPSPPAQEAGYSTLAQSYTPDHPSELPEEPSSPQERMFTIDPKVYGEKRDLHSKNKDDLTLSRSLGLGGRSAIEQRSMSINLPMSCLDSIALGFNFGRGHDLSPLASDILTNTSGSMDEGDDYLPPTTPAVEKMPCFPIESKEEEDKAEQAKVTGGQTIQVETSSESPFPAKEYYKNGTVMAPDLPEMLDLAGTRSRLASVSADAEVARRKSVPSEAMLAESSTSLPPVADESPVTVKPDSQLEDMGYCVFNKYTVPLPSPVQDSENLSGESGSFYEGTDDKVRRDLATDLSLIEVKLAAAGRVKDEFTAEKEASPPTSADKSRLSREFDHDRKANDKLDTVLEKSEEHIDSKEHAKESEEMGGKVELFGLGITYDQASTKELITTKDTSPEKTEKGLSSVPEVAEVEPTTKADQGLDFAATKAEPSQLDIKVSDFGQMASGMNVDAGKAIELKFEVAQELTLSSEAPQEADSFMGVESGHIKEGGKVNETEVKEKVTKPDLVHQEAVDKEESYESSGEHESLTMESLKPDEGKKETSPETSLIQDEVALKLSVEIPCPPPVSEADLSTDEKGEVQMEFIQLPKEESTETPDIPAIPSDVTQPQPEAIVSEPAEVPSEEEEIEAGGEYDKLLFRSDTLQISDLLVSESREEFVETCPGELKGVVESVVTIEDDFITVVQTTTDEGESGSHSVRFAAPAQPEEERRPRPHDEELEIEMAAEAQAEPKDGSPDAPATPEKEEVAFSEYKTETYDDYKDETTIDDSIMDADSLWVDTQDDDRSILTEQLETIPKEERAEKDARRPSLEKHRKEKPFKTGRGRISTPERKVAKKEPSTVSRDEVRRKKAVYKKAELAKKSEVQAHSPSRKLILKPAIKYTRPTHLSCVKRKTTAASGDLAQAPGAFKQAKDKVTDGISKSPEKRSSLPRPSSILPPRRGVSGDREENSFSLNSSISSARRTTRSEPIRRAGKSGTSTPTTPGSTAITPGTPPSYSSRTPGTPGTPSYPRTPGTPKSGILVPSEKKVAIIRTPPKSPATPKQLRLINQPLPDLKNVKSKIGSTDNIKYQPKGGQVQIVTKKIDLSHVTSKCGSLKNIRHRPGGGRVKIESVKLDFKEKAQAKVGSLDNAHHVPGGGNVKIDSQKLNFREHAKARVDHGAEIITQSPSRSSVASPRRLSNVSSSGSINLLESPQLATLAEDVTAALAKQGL
UniProt P63094: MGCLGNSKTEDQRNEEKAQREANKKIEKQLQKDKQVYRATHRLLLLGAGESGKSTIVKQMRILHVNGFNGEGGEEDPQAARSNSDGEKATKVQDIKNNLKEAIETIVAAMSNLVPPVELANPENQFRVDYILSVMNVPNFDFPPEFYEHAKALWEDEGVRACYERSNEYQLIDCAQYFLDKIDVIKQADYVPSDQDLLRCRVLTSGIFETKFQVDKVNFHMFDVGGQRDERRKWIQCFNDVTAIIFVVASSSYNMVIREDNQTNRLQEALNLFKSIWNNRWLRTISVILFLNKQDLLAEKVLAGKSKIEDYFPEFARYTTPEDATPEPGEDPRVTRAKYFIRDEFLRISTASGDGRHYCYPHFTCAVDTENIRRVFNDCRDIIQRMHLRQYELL

For assay [1], the target named is T1, Brsk2, bait of the co-immunoprecipitation analysed by mass spectrometry in MIN6 cells (UniProt Q8IWQ3).
T1 sequence: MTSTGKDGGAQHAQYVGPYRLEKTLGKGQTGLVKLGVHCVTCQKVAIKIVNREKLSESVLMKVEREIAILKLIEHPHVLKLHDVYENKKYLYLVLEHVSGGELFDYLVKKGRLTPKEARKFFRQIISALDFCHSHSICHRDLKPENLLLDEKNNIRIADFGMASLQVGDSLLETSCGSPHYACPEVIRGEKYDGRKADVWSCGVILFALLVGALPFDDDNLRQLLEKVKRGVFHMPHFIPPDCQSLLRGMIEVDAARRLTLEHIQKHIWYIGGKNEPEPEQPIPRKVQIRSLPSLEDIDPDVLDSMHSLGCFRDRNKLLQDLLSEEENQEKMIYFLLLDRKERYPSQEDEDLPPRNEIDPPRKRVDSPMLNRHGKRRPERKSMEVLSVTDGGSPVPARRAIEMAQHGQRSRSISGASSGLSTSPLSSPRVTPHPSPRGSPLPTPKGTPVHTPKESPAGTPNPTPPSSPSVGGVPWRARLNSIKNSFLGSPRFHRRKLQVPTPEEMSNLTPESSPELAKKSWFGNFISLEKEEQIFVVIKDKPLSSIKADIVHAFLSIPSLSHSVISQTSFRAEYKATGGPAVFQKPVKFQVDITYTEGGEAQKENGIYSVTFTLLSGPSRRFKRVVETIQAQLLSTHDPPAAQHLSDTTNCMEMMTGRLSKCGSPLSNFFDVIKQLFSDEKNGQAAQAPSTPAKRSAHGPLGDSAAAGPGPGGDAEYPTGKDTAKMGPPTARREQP
Briefly: affinity purification with mass spectrometry.

The target in assay [2] is T1, Brsk2, bait of the co-immunoprecipitation analysed by mass spectrometry in MIN6 cells. Briefly: affinity purification with mass spectrometry. The source holds these as a separate data set.

Turning to “Arrb2 of MIN6 cells (from UniProt Q91YI4 1-410)”, the binding entry in assay [1] is recorded as “binds”.

“Map2 of MIN6 cells (from UniProt P20357 1-1828)”: the binding entry in assay [1] is given as “binds”.

As to “Gnas of MIN6 cells (from UniProt P63094 1-394)”, the binding result in assay [1] is reported as “binds”.

B1: phospholipase A2 activating protein (Plaa) of MIN6 cells (protein, UniProt P27612 1-794)
chain: MASGASRYRLSCSLPGHELDVRGLVCCLYPPGAFVSVSRDRTTRLWAPDSPNRGFTEMHCMSGHSNFVSCVCIIPSSDIYPHGLIATGGNDHNICIFSLDSPMPLYILKGHKDTVCSLSSGKFGTLLSGSWDTTAKVWLNDKCMMTLQGHTAAVWAVKILPEQGLMLTGSADKTIKLWKAGRCERTFLGHEDCVRGLAILSETEFLSCANDASIRRWQITGECLEVYFGHTNYIYSISVFPNSKDFVTTAEDRSLRIWKHGECAQTIRLPAQSIWCCCVLENGDIVVGASDGIIRVFTESEERTASAEEIKAFERELSQATIDSKTGDLGDINAEQLPGREHLSEPGTREGQTRLIRDGERVEAYQWSVSDGRWIKIGDVVGSSGANQQTSGKVLYEGKEFDYVFSIDVNEGGPSYKLPYNVSDDPWLVAYNFLQKNDLNPMFLDQVAKFIIDNTKGQTLGLGNTSFSDPFTGGGRYVPGTSGPSNTVQTADPFTGAGRYMPGSAGMDTTMTGVDPFTGNSAYRSAASKTVNIYFPKKEALTFDQANPTQILGKLKELNGTAPEEKKLTEDDLVLLEKILSLICNNSSEKPTAQQLQILWKAINWPEDIVFPALDILRLSIKHPNVNENFCNEKGDQFSSHLINLLNPKGKPANQLLALRTFCNCFVSQAGQKLMMSQRESLMSHAIELKSGSNKNIHIALATLTLNYSVCFHKDHNIEGKAQCLSVISTILEVVQDLEATFRLLVALGTLISDDSNAIQLAKSLGVDSQIKKYVSVSEPAKVSECCRLVLHLL
Consider B1, for which, in assay [2], the binding entry is “binds”.

The values above are taken from paper doi:10.1101/2021.08.05.455219.
